Results are given in words; binding and its absence hold for the method and conditions named. Some entries that bind do so weakly or less than the wild type.
B1: BIIB67F11 Fab (Fab, V domains shown)
VH: EVQLLESGGGLVQPGGSLRLSCAASGFTFSNYYMMWVRQAPGKGLEWVSVIGSSGGMTNYADSVKGRFTISRDNSKNTLYLQMNSLRAEDTAVYYCARGYPTGYYDSSGWVYSYYGIDVWGQGTTVTVSS
VL: DIQMTQSPSSLSASIGDRVTITCQASQDTDNRLHWYQQKSGRAPKLLIYDAVNLKRGVPSRFRGSGSGTNFILTITNLQPEDMATYFCQHSDGLSLAFGGGTKLEIK
B2: BIIB71F10 Fab (Fab, V domains shown)
VH: EVQLLESGGGLVQPGGSLRLSCAASGFTFSSYGMVWVRQAPGKGLEWVSSISSSGGLTWYADSVKGRFTISRDNSKNTLYLQMNSLRAEDTAVYYCASPPGIAVARDYWGQGTLVTVSS
VL: DIQMTQSPSSLSASVGDRVTITCRASQGISNYLAWYQQKPGKVPKLLIYAASTLQSGVPSRFSGSGSGTDFTLTISSLQPEDVATYYCQKYNSALLTFGGGTKVEIK
B3: BIIB69A09 Fab (Fab, V domains shown)
VH: EVQLLESGGGLVQPGGSLRLSCAASGFTFSRYNMWWVRQAPGKGLEWVSVIRSSGGYTGYADSVKGRFTISRDNSKNTLYLQMNSLRAEDTAVYYCARWNSGYSYWDYYYGMDVWGQGTTVTVSS
VL: DIQMTQSPSSLSASVGDRVTITCRASQSISSYLNWYQQKPGKAPKLLIYAASSLQSGVPSRFSGSGSGTDFTLTISSLQPEDFATYYCQQFNTYPITFGPGTKVDIK
B4: BIIB65B03 Fab (Fab, V domains shown)
VH: EVQLLESGGGLVQPGGSLRLSCAASGFTFSWYRMNWVRQAPGKGLEWVSSIYSSGGPTNYADSVKGRFTISRDNSQNTLYLQMNSLRAEDTAVYYCTREKPDYYDSSGYLDYWGQGTLVTVSS
VL: DIQMTQSPGTLSLSPGERSTLSCRASQSVSSSYLAWYQQKPGQAPRLLIYGASSRATGIPDRFSGSGSGTDFTLTISRLEPEDFGVYYCHQYGRPPVFGPGTKVDIK
B5: BIIB65H09 Fab (Fab, V domains shown)
VH: EVQLLESGGGLVQPGGSLRLSCAASGFTFSWYSMWWVRQAPGKGLEWVSSIVSSGGQTRYADSVKGRFTISRDNSKNTLYLQMNSLRAEDTAVYYCARVKGYYYYIDVWGKGTTVTVSS
VL: DIQMTQSPGTLSLSPGERATLSCRASQSVDSSYLSWYQQKPGQAPRLLIYGASTRATGIPARFSGSGSGTDFTLTVSRLEPEDFAVYYCQQHGYSSRTFGQGTKVEIK
B6: BIIB66C01 Fab (Fab, V domains shown)
VH: EVQLLESGGGLVQPGGSLRLSCAASGFTFSWYSMSWVRQAPGKGLEWVSSISSSGGPTHYADSVKGRFTISRDNSKNTLYLQMNSLRAEDTAVYYCARDSSYSGTSWGQGTLVTVSS
VL: QYELTQPPSVSGTPGQRVTISCSGSSSNIGSEYVYWFQQLPGTAPRLLIYRNDQRPSGVPDRFSGSKSGTSASLAISGLRSEDETDYYCTTWDDSLSGPVFGGGTKLTVL
B7: 71F10 IgG (BIIB71F10-134) (antibody, V domains shown)
VH: B2 VH
VL: DIQMTQSPSSLSASVGDRVTITCRASQGISNYLAWYQQKPGKVPKLLIYAASTLQSGVPSRFSGSGSGTDFTLTISSLQPEDVATYYCQKYNSALLTFGGGTKVEIKR
B8: BIIB67F10 Fab (Fab, V domains shown)
VH: EVQLLESGGGLVQPGGSLRLSCAASGFTFSPYMMVWVRQAPGKGLEWVSWISPSGGYTFYADSVKGRFTISRDNSKNTLYLQMNSLRAEDTAVYYCAYGTYPLTYWGQGTLVTVSS
VL: QSELTQTPSVSVSPGQTASITCSGDKLGDKYVSWFQLKPGQSPLLVIYQDSKWPSGIPERFSGSNSGNTATLTISGTQATDEADYYCQVWDISHVVFGGGTKLTVL

The chains behind the UniProt entries cited, without tags or fusion partners. Residues count along the entry.
UniProt P70424, residues 23-653: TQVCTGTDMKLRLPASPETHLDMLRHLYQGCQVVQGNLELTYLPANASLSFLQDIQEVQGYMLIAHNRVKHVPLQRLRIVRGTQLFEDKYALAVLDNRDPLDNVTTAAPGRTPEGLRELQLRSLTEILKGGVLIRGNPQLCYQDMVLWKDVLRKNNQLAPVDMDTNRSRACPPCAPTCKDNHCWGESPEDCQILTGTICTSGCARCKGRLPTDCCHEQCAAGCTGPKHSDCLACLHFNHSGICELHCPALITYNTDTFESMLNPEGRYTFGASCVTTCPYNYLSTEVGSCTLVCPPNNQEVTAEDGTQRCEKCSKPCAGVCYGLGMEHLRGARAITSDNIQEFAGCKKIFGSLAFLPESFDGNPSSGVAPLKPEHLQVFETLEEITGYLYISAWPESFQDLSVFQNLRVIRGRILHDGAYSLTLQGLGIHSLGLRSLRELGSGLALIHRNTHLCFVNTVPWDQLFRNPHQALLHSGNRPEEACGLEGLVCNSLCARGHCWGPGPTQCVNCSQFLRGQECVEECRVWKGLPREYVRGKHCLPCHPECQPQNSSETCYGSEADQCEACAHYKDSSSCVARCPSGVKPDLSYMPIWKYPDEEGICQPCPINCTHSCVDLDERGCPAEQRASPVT
UniProt P06494, residues 23-1257: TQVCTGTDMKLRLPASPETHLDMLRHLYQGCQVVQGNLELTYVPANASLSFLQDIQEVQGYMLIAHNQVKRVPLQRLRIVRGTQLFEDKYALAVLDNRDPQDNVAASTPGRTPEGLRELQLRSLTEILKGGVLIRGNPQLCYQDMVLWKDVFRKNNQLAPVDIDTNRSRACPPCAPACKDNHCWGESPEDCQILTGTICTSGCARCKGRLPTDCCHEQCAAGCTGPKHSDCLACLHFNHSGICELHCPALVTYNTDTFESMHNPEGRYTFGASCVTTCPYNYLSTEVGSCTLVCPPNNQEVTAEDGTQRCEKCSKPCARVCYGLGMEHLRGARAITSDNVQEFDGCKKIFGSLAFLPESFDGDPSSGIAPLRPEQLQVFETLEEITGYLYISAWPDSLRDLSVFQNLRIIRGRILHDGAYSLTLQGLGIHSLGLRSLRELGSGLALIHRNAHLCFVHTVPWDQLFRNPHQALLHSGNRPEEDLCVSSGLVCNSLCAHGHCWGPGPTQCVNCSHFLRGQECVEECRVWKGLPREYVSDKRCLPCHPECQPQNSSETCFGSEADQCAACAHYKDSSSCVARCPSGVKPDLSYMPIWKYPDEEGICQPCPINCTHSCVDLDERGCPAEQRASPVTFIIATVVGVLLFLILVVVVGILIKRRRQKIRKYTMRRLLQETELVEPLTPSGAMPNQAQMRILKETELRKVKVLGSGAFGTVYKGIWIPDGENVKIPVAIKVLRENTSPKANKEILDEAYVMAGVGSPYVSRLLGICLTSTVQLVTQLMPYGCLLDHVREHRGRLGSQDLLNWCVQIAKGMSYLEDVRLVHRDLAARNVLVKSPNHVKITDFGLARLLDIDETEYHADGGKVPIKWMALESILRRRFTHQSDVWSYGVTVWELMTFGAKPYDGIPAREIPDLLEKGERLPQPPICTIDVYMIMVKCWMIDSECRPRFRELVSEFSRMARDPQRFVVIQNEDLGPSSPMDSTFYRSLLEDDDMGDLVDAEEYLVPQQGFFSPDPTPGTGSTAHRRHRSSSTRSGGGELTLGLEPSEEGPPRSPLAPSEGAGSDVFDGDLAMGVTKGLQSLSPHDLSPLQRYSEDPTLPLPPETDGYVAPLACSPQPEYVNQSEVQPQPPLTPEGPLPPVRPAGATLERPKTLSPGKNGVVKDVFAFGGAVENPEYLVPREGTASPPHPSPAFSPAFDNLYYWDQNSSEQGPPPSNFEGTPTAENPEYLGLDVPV

Assays:
D1-D2 Her2-Fc = assay: ELISA, HER2 domain-Fc captured on anti-huFc, detection HRP-anti-fab
D1-D2-D3 Her2-Fc = assay: as above
[1] = molecular target: wild type mHER2/ErbB2 (ELISA of Example 3) (mouse) (UniProt P70424); assay: ELISA
[2] = molecular target: rat HER2 on Tubo cancer cells (rat) (UniProt P06494); assay: FACS on Tubo cancer cells
[3] = molecular target: human HER2/ErbB2, full length, on cells (human) (UniProt P04626); assay: flow cytometry on CHO/hHER2 cells, detection anti-hFc; because the IgG carries its own Fc these panels say nothing on LTbR-Ig or HVEM-Ig
[4] = molecular target: human HER2/ErbB2, full length, on cells (human) (UniProt P04626); assay: flow cytometry on CHO/hHER2 cells; binder pre-incubated with Control IgG, LTbR-Ig or Her2-Fc, each 20ug/ml
[5] = molecular target: human HER2/ErbB2, full length, on cells (human) (UniProt P04626); assay: flow cytometry on SKBR3 cells

Binder	binding (D1-D2 Her2-Fc)	binding (D1-D2-D3 Her2-Fc)	other results
B1	binds	binds	
B2	binds	binds	binding [1]: binds; binding [2]: binds
B3	binds	binds	
B4		binds	
B5		binds	
B6		binds	
B7			binding [3]: binds; binding [4]: binds; binding [5]: binds
B8	binds	binds	

From patent publication US20100119511A1
